We go through eleven targets from the supplement of paper PMC12819154, “High-throughput peptide-centric local stability assay extends protein–ligand identification to membrane proteins, tissues and bacteria” (Nature Structural & Molecular Biology, 2025).

Amino acid sequences for entries named in this document (tags omitted). A change or cut given only in a name is not applied to a line headed by its entry.
UniProt Q92574: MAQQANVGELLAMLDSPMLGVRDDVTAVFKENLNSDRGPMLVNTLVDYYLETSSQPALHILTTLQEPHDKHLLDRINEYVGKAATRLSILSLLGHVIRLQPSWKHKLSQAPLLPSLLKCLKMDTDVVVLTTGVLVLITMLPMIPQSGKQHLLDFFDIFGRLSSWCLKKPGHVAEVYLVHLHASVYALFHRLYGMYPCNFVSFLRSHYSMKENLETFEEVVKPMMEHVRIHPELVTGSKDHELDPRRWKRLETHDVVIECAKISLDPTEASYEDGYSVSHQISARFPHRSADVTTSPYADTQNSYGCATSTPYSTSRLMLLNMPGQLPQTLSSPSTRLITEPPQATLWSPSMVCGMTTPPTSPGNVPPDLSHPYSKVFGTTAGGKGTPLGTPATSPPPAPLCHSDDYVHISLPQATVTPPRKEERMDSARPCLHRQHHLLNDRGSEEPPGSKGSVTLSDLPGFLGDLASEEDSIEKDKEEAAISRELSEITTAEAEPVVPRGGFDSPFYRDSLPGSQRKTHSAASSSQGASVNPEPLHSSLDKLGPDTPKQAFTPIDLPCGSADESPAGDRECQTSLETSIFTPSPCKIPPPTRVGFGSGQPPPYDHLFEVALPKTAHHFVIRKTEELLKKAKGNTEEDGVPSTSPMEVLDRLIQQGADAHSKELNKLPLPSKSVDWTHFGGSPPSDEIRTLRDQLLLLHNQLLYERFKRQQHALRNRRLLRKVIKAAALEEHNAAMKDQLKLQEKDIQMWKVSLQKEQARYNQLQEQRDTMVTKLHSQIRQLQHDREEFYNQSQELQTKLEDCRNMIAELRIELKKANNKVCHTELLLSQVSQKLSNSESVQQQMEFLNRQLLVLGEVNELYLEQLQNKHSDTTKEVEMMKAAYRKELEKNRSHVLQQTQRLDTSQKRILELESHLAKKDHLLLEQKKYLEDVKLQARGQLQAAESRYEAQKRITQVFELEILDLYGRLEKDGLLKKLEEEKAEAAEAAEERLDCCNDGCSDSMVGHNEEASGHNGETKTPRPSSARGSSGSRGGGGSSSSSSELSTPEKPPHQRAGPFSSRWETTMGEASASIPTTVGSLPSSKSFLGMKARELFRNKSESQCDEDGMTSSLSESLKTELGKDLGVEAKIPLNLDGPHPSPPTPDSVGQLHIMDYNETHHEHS
UniProt Q8TE02: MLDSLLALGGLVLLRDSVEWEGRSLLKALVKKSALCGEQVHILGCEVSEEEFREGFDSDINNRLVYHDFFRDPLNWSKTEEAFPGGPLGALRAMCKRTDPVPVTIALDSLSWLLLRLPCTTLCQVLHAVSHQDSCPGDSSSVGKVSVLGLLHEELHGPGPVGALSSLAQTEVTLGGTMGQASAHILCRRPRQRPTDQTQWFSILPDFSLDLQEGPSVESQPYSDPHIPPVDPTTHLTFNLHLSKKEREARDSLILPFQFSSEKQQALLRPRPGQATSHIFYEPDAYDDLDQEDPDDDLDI
UniProt Q92556, whole entry: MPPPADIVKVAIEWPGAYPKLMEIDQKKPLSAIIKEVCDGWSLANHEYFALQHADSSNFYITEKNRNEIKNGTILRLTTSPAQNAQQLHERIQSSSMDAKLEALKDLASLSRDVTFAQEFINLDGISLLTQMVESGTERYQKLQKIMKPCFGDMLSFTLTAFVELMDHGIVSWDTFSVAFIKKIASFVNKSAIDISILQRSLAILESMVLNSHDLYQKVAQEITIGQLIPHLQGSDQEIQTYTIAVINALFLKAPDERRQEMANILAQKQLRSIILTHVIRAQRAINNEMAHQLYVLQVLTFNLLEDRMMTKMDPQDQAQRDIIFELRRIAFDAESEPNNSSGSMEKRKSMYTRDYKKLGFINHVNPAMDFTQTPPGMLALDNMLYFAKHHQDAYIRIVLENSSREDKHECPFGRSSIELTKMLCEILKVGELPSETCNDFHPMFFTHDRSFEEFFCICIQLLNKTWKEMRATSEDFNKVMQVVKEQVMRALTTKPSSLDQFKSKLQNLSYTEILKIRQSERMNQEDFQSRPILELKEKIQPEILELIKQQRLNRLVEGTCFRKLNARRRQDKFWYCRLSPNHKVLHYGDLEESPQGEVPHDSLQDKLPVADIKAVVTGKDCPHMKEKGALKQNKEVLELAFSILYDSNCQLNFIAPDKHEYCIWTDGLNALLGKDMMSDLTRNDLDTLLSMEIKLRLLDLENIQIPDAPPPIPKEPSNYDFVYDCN
UniProt Q8WU58: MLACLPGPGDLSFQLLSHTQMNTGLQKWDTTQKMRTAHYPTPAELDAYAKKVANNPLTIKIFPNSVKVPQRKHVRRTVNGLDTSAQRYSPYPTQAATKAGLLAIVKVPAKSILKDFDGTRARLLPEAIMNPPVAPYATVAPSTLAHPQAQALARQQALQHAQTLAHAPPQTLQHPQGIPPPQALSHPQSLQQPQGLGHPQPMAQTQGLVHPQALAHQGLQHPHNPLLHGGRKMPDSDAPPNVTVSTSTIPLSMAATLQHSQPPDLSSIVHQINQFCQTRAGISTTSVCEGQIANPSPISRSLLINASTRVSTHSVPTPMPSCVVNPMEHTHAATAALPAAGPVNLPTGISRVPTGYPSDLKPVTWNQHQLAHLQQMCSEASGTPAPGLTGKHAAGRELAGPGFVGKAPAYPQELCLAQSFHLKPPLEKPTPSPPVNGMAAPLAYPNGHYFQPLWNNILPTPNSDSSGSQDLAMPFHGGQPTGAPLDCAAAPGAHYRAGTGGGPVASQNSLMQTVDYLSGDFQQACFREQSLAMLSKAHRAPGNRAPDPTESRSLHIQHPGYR
UniProt Q8TCS8: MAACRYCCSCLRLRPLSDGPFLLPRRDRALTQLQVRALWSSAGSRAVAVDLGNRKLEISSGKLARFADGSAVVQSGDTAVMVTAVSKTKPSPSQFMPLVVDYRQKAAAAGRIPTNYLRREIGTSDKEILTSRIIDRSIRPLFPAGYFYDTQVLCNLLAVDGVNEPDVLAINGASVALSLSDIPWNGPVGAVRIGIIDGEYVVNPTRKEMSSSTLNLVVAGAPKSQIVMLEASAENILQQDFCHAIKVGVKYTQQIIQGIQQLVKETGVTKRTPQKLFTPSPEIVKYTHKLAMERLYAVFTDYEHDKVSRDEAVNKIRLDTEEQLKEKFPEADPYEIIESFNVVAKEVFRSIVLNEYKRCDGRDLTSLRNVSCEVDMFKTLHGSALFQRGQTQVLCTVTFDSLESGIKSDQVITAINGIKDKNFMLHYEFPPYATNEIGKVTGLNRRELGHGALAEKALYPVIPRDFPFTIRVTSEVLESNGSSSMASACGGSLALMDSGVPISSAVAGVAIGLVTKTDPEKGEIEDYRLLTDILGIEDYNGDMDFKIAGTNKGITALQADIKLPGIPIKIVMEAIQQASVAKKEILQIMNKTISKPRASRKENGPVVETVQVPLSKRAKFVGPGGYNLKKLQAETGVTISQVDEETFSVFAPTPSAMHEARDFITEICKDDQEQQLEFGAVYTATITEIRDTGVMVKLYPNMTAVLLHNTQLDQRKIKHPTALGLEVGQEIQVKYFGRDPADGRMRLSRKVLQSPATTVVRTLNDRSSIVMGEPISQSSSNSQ
UniProt Q8TD31: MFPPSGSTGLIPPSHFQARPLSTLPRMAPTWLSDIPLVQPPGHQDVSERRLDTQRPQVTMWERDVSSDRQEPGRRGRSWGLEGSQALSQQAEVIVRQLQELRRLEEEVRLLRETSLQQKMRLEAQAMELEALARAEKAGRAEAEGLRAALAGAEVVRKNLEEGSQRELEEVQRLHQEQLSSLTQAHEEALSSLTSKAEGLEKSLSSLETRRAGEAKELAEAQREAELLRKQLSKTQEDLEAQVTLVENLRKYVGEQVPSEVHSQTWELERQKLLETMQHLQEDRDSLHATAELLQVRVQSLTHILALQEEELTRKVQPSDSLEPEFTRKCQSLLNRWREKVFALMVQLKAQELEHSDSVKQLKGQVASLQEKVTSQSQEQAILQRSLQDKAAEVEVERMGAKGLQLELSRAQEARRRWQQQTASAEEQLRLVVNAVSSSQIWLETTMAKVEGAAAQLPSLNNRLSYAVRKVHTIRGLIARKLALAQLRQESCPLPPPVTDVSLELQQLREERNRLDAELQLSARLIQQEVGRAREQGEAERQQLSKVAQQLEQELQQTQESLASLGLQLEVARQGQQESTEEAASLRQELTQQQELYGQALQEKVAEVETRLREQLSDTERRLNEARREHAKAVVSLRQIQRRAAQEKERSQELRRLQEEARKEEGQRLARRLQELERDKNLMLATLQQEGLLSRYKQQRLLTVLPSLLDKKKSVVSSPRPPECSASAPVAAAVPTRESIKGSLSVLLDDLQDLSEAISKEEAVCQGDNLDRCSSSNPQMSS
UniProt Q8TEA1: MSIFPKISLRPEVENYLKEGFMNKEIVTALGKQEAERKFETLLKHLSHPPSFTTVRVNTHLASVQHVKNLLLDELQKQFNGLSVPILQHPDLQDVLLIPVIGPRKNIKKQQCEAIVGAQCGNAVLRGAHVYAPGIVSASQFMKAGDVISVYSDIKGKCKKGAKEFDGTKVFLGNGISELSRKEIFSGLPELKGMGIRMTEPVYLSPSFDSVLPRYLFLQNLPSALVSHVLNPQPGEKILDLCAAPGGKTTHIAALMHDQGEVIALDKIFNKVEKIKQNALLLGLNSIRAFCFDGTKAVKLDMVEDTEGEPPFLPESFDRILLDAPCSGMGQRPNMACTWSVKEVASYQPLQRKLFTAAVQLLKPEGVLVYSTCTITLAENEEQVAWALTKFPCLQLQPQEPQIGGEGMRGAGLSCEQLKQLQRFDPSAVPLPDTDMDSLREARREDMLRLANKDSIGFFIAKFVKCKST
UniProt Q8WXB1: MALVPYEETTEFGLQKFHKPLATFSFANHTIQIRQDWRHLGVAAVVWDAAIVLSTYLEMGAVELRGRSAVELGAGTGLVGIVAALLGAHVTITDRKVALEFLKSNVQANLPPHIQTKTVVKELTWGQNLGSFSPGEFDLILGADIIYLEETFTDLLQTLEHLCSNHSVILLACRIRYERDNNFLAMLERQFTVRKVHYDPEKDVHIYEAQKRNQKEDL
UniProt Q8TDF6: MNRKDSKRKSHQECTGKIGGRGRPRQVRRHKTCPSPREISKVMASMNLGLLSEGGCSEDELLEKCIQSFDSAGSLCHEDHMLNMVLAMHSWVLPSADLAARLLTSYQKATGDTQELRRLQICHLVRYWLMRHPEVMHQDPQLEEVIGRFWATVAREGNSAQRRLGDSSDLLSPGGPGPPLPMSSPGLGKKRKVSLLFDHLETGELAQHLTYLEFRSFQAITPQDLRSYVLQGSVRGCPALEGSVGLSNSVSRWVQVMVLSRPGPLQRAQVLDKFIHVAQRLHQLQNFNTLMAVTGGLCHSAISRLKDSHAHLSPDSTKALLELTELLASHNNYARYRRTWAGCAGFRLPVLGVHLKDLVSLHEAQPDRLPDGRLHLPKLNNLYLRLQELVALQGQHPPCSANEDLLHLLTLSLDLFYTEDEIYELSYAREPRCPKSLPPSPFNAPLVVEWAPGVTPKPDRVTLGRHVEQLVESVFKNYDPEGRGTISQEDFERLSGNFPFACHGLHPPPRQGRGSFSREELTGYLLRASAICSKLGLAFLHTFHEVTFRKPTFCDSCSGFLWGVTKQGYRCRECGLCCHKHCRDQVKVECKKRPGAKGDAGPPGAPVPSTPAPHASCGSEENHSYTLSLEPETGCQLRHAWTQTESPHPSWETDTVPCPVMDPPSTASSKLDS
UniProt Q8WVK2: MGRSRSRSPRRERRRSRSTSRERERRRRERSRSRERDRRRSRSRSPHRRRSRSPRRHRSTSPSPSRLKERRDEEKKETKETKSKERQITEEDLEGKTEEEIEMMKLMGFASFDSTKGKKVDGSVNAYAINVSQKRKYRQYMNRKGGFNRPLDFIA

Some of the results follow. Small differences around the control level are noise.

Compound in this test: CN[C@@H]1C[C@H]2O[C@@](C)([C@@H]1OC)n1c3ccccc3c3c4c(c5c6ccccc6n2c5c31)C(=O)NC4 [staurosporine]
The experiment in a line: log2 fold change of tryptic peptide abundance, ligand vs vehicle (limited proteolysis) (log2 ratio); higher = more trypsin-susceptible (destabilized). To be noted: ligand concentration: 20 uM; sample: K562 cleared lysate; digestion: 4 min, 22 C (HT-PELSA RT4min, Orbitrap Astral).
Regarding “TSC1 (peptide sequence: AAALEEHNAAMK, peptide start residue: 726) (UniProt Q92574)”, the log2 fold change was found to be 0.88.

Consider “UniProt Q8TE02 (peptide sequence: LVYHDFFRDPLNWSK, peptide start residue: 80)”, for which the log2 fold change is -0.522. As for “ELMO1 (peptide sequence: IQPEILELIK, peptide start residue: 540) (UniProt Q92556)”, the log2 fold change was determined as 0.472. On to “FAM222B (peptide sequence: TVNGLDTSAQR, peptide start residue: 77) (UniProt Q8WU58)”, for which the log2 fold change was -0.206.

Consider “PNPT1 (peptide sequence: IKHPTALGLEVGQEIQVK, peptide start residue: 717) (UniProt Q8TCS8)”, for which the log2 fold change was -0.252.

As to “CCHCR1 (peptide sequence: VQSLTHILALQEEELTR, peptide start residue: 298) (UniProt Q8TD31)”, the log2 fold change is 0.242. Regarding “NSUN6 (peptide sequence: KFETLLK, peptide start residue: 38) (UniProt Q8TEA1)”, the log2 fold change came to 0.317. With “RREB1 (peptide sequence: MVEDGQSGDLEKK, peptide start residue: 191) (UniProt Q92766)”, the log2 fold change was -0.913. On to “UniProt Q8WXB1 (peptide sequence: FHKPLATFSFANHTIQIR, peptide start residue: 17)”, for which the log2 fold change is -0.0447. Under “UniProt Q8TDF6 (peptide sequence: LKDSHAHLSPDSTK, peptide start residue: 305)” stands 0.165; under “SNRNP27 (peptide sequence: VDGSVNAYAINVSQK, peptide start residue: 120) (UniProt Q8WVK2)”, -0.685.
